Results reported in patent US11235001B2, “RUNX inhibitor” (KYOTO UNIVERSITY, priority 2016, dated 2022).

What was measured:
Assay in all cases: cells
SU/SR cells = conditions: Homo sapiens, 48 h, read-out: IC50 value
PC-3 cells = conditions: Homo sapiens, PC-3, 48 h, read-out: IC50 (μM) in PC-3 cells
DU-145 cells = conditions: Homo sapiens, DU-145, 48 h, read-out: IC50 (μM) in DU-145 cells

IC50 (SU/SR cells) [µM] | IC50 (PC-3 cells) [µM] | IC50 (DU-145 cells) [µM] | Structure (SMILES)
14.8 | – | – | Cc1ccc(NC(=O)c2ccc(CN3CCN(C)CC3)cc2)cc1Nc1nccc(-c2cccnc2)n1 [imatinib, reference compound]
– | 88.1 | 47.2 | CNC(=O)c1ccc(N2C(=S)N(c3ccc(C#N)c(C(F)(F)F)c3)C(=O)C2(C)C)cc1F [Enzalutamide]
